Test results published in US20090298866A1, “Indole Compounds” (priority 2006, published 2009).
Where a name gives a salt, the structure may show the parent alone. Some of these results come from one statement about several compounds together.

biological target: T1, human EP1 receptor (Homo sapiens, UniProt P34995); experiment: Binding assay for the human prostanoid EP1 receptor (competition with [3H]-PGE2); settings: binding to human EP1 receptor, CHO-K1 membranes, [3H]-PGE2 3 nM; averages of a number of experiments
T1 construct: expressed in transfected cells; host or cells: CHO-K1
T1 sequence (P34995 1-402): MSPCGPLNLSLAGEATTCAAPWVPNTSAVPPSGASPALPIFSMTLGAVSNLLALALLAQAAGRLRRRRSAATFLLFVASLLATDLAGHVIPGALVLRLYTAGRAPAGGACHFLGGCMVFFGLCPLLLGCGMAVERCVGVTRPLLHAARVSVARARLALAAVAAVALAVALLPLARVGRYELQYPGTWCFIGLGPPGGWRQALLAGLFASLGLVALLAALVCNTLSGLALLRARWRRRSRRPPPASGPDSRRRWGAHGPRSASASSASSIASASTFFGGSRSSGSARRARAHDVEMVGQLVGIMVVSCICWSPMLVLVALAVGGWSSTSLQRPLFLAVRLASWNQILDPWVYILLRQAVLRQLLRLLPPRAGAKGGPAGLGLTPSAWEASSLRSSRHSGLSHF
Experimental: Competition assay using [^3H]-PGE2.
Compound potencies are determined using a radioligand binding assay. In this assay compound potencies are determined from their ability to compete with tritiated prostaglandin E2 ([^3H]-PGE2) for binding to the human EP1 receptor. This assay utilises Chinese hamster ovary-K1 (CHO-K1) cells into which a stable vector containing the EP1 cDNA has previously been transfected. Cells are cultured in suitable flasks containing culture medium such as DMEM:F-12 supplemented with 10% v/v foetal calf serum, 2 mM L-glutamine, 0.25 mg/ml geneticin, 10 μg/ml puromycin and 10 μM indomethacin.
Cells are detached from the culture flasks by incubation in calcium and magnesium free phosphate buffered saline containing 1 mM disodium ethylenediaminetetraacetic acid (Na2EDTA) and 10 μM indomethacin for 5 min. The cells are isolated by centrifugation at 250×g for 5 mins and suspended in an ice cold buffer such as 50 mM Tris, 1 mM Na2EDTA, 140 mM NaCl, 10 μM indomethacin (pH 7.4). […]
For the binding assay the cell membranes, competing compounds and [^3H]-PGE2 (3 nM final assay concentration) are incubated in a final volume of 100 μl for 30 min at 30° C. […] The filters are washed with ice cold assay buffer, dried and the radioactivity retained on the filters is measured by liquid scintillation counting in Packard TopCount scintillation counter. […]

SMILES	pIC50
COC(=O)c1ccc2[nH]c(-c3csc(-n4cc(CC(C)C)c5ccc(Cl)cc54)n3)nc2c1 [Example 44, Methyl 2-{2-[6-chloro-3-isobutyl-1H-indol-1-yl]-1,3-thiazol-4-yl}-1H-benzimidazole-5-carboxylate]	≥ 7

biological target: T1, human EP1 receptor; experiment: human EP1 calcium mobilisation assay; assay type: cell-based; settings: human EP1, CHO-K1 cells, PGE2-induced calcium mobilisation; averages of a number of experiments
Experimental: Briefly, the antagonist properties of compounds are assessed by their ability to inhibit the mobilisation of intracellular calcium ([Ca^2+]i) in response to activation of EP1 or EP3 receptors by the natural agonist hormone prostaglandin E2 (PGE2). Increasing concentrations of antagonist reduce the amount of calcium that a given concentration of PGE2 can mobilise. The net effect is to displace the PGE2 concentration-effect curve to higher concentrations of PGE2. The amount of calcium produced is assessed using a calcium-sensitive fluorescent dye such as Fluo-4, AM and a suitable instrument such as a Fluorimetric Imaging Plate Reader (FLIPR). Increasing amounts of [Ca^2+]i produced by receptor activation increase the amount of fluorescence produced by the dye and give rise to an increasing signal. The signal may be detected using the FLIPR instrument and the data generated may be analysed with suitable curve-fitting software.
The human EP1 or EP3 calcium mobilisation assay (hereafter referred to as ‘the calcium assay’) utilises Chinese hamster ovary-K1 (CHO-K1) cells into which a stable (pCIN; BioTechniques 20 (1996): 102-110) vector containing either EP1 or EP3 cDNA has previously been transfected. Cells are cultured in suitable flasks containing culture medium such as DMEM:F-12 supplemented with 10% v/v foetal calf serum, 2 mM L-glutamine, 0.25 mg/ml geneticin, 100 μM flurbiprofen and 10 μg/ml puromycin.
For assay, cells are harvested using a proprietary reagent that dislodges cells such as Versene. Cells are re-suspended in a suitable quantity of fresh culture media for introduction into a 384-well plate. Following incubation for 24 hours at 37° C. the culture media is replaced with a medium containing Fluo-4 and the detergent pluronic acid, and a further incubation takes place. Concentrations of compounds are then added to the plate in order to construct concentration-effect curves. This may be performed on the FLIPR in order to assess the agonist properties of the compounds. Concentrations of PGE2 are then added to the plate in order to assess the antagonist properties of the compounds.
The data so generated may be analysed by means of a computerised curve-fitting routine. The concentration of compound that elicits a half-maximal inhibition of the calcium mobilisation induced by PGE2 (pIC50) may then be estimated.

SMILES	functional pKi
CC(C)Cc1cn(-c2nc(C(=O)Nc3ccccn3)cs2)c2cc(Cl)ccc12 [Example 27, 2-[6-Chloro-3-isobutyl-1H-indol-1-yl]-N-2-pyridinyl-1,3-thiazole-4-carboxamide]	≥ 5.5
CC(C)Cc1cn(-c2nc(NC(=O)c3cccnc3)cs2)c2cc(Cl)ccc12 [Example 6, N-[2-(6-Chloro-3-isobutyl-1H-indol-1-yl)-1,3-thiazol-4-yl]nicotinamide]	≥ 5.5
CC(C)Cc1cn(-c2nc(-c3nc4ccccc4[nH]3)cs2)c2cc(Br)ccc12.Cl [Example 38, 2-{2-[6-Bromo-3-isobutyl-1H-indol-1-yl]-1,3-thiazol-4-yl}-1H-benzimidazole hydrochloride]	≥ 5.5
CC(C)Cc1cn(-c2nc(C(=O)Nc3ccc(CO)cc3)cs2)c2cc(Cl)ccc12 [Example 21, 2-[6-Chloro-3-isobutyl-1H-indol-1-yl]-N-[4-(hydroxymethyl)phenyl]-1,3-thiazole-4-carboxamide]	≥ 5.5
CC(C)Cc1cn(-c2nc(-c3nc4cc(CN5CCCC5)ccc4[nH]3)cs2)c2cc(Cl)ccc12 [Example 50, 2-{2-[6-Chloro-3-isobutyl-1H-indol-1-yl]-1,3-thiazol-4-yl}-5-(1-pyrrolidinylmethyl)-1H-benzimidazole dihydrochloride]	≥ 5.5
CC(C)Cc1cn(-c2nc(C(=O)Nc3cccc(CO)c3)cs2)c2cc(Cl)ccc12 [Example 24, 2-[6-Chloro-3-isobutyl-1H-indol-1-yl]-N-[3-indol-1-yl]N-[3-(hydroxymethyl)phenyl]-1,3-thiazole-4-carboxamide]	≥ 5.5
CC(C)Cc1cn(-c2nc(C(N)=O)cs2)c2cc(Cl)ccc12 [Example 30, 2-[6-Chloro-3-isobutyl-1H-indol-1-yl]-1,3-thiazole-4-carboxamide]	≥ 5.5
CC(C)Cc1cn(-c2nc(-c3nc4cc(CN5CCCCC5)ccc4[nH]3)cs2)c2cc(Cl)ccc12 [Example 51, 2-{2-[6-Chloro-3-isobutyl-1H-indol-1-yl]-1,3-thiazol-4-yl}-5-(1-piperidinylmethyl)-1H-benzimidazole dihydrochloride]	≥ 5.5
CC(C)Cc1cn(-c2nc(C(=O)Nc3ccccc3)cs2)c2cc(Cl)ccc12 [Example 23, 2-[6-Chloro-3-isobutyl-1H-indol-1-yl]N-phenyl-1,3-thiazoie-4-carboxamide]	≥ 5.5
CC(C)Cc1cn(-c2nc(NC(=O)C3CCCC3)cs2)c2cc(Cl)ccc12 [Example 3, N-{2-[6-Chloro-3-isobutyl-1H-indol-1-yl]-1,3-thiazol-4-yl}cyclopentanecarboxamide]	≥ 5.5
CC(C)Cc1cn(-c2nc(C(=O)Nc3ccc(F)cc3)cs2)c2cc(Cl)ccc12 [Example 29, 2-[6-Chloro-3-isobutyl-1H-indol-1-yl]-N-(4-fluorophenyl)-1,3-thiazole-4-carboxamide]	≥ 5.5
CC(C)Cc1cn(-c2nc(-c3nc4ccccc4[nH]3)cs2)c2cc(Cl)ccc12.Cl [Example 35, 2-{2-[6-Chloro-3-isobutyl-1H-indol-1-yl]-1,3-thiazol-4-yl}-1H-benzimidazole hydrochloride]	≥ 5.5
CC(C)Cc1cn(-c2nc(C(=O)N3CCCC3)cs2)c2cc(Cl)ccc12 [Example 11, 6-Chloro-3-isobutyl-1-[4-(1-pyrrolidinylcarbonyl)-1,3-thiazol-2-yl]-1H-indole]	≥ 5.5
CC(C)Cc1nn(-c2nc(-c3nc4ccccc4[nH]3)cs2)c2cc(Cl)ccc12 [Example 39, 1-[4-(1H-Benzimidazol-2-yl)-1,3-thiazol-2-yl]-6-chloro-3-isobutyl-1H-indazole hydrochloride]	≥ 5.5
CC(C)Cc1cn(Cc2nc(C(N)=O)cs2)c2cc(Cl)ccc12 [Example 34, 2-{[6-Chloro-3-isobutyl-1H-indol-1-yl]methyl}-1,3-thiazole-4-carboxamide]	≥ 5.5
